Test results from article PMC6831302.
These are yes or no findings as the source states them, for the method shown. In cells and extracts the contact can be indirect. Some binding calls cover weakened binding; strength is not graded here.

The chains behind the UniProt entries cited, without tags or fusion partners.
UniProt P49841: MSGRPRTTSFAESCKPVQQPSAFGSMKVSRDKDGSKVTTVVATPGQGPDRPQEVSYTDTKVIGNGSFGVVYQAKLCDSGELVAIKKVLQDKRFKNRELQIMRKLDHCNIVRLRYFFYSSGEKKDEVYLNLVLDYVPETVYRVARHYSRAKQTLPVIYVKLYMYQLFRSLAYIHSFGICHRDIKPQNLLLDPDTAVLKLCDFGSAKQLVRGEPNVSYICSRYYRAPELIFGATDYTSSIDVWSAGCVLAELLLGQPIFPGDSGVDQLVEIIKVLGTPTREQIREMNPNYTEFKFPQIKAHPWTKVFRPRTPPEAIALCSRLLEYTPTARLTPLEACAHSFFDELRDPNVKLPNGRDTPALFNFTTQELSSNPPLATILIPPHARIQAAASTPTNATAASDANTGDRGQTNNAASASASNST
UniProt P07355: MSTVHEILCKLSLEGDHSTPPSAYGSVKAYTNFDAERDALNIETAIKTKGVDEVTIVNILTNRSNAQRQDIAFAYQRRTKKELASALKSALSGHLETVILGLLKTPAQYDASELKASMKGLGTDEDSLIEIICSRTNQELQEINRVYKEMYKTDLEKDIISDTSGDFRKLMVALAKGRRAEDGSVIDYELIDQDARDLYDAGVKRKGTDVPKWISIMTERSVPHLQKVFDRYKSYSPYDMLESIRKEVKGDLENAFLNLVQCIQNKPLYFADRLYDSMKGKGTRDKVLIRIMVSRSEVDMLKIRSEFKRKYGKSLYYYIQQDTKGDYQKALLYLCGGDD

Biological target: glycogen synthase kinase 3β (human (endogenous in MCF-7 and MDA-MB-231)) (UniProt P49841)
Test: co-IP; LncCCAT1-overexpressing MCF-7 cells and LncCCAT1-knockdown MDA-MB-231 cells; which protein was precipitated is not told in the text shown

binding: binds
Substance: Annexin A2 (from UniProt P07355 1-339)
